Reference: the supplement of paper PMC10849652
The other results are listed elsewhere or left out.

By UniProt entry, the sequences of proteins in these tests, tags left out. Where a name states a change or a piece, a line headed by the entry shows the natural chain unless it says otherwise.
UniProt Q9BQG0: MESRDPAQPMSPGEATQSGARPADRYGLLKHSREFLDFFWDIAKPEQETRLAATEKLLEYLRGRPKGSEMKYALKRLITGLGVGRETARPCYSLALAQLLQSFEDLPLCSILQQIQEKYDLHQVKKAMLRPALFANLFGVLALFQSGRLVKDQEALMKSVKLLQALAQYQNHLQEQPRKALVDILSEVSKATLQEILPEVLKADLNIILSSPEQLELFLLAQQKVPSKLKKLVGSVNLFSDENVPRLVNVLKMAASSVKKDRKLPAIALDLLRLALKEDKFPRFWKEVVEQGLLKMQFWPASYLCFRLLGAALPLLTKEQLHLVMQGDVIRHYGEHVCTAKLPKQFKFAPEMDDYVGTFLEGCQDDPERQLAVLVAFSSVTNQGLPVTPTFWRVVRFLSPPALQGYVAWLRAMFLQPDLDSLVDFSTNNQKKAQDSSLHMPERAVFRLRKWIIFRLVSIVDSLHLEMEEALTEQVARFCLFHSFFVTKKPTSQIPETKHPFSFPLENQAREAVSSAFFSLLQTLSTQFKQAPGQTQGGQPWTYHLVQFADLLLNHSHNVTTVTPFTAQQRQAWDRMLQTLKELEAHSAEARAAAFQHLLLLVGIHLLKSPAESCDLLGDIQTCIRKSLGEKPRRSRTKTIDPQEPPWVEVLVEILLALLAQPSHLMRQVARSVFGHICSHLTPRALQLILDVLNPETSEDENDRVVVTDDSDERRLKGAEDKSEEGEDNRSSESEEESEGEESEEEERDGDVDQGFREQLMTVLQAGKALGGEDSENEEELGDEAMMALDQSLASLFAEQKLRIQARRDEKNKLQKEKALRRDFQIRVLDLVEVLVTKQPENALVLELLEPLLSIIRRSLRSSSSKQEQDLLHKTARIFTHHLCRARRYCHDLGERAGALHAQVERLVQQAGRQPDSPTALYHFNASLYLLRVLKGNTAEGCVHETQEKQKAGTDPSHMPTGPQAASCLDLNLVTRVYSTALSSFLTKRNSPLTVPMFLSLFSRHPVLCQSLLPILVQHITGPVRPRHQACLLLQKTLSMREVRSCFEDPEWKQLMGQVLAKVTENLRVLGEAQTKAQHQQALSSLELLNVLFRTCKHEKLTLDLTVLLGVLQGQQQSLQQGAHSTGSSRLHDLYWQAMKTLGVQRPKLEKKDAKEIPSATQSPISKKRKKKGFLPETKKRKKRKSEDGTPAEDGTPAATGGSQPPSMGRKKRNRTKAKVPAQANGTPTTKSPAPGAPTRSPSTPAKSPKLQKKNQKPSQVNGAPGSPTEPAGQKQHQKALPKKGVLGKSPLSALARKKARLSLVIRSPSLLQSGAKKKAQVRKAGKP
UniProt Q9UGC7: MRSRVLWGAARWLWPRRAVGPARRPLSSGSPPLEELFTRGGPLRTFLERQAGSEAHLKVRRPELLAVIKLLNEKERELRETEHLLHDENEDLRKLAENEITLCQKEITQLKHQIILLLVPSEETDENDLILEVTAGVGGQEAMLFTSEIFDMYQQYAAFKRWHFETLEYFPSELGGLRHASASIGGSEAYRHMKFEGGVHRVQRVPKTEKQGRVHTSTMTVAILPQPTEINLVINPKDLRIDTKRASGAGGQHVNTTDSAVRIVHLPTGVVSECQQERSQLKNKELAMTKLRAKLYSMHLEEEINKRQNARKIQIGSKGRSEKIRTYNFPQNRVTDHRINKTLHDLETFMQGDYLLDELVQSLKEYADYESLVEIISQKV
UniProt P11055, whole entry, looked up: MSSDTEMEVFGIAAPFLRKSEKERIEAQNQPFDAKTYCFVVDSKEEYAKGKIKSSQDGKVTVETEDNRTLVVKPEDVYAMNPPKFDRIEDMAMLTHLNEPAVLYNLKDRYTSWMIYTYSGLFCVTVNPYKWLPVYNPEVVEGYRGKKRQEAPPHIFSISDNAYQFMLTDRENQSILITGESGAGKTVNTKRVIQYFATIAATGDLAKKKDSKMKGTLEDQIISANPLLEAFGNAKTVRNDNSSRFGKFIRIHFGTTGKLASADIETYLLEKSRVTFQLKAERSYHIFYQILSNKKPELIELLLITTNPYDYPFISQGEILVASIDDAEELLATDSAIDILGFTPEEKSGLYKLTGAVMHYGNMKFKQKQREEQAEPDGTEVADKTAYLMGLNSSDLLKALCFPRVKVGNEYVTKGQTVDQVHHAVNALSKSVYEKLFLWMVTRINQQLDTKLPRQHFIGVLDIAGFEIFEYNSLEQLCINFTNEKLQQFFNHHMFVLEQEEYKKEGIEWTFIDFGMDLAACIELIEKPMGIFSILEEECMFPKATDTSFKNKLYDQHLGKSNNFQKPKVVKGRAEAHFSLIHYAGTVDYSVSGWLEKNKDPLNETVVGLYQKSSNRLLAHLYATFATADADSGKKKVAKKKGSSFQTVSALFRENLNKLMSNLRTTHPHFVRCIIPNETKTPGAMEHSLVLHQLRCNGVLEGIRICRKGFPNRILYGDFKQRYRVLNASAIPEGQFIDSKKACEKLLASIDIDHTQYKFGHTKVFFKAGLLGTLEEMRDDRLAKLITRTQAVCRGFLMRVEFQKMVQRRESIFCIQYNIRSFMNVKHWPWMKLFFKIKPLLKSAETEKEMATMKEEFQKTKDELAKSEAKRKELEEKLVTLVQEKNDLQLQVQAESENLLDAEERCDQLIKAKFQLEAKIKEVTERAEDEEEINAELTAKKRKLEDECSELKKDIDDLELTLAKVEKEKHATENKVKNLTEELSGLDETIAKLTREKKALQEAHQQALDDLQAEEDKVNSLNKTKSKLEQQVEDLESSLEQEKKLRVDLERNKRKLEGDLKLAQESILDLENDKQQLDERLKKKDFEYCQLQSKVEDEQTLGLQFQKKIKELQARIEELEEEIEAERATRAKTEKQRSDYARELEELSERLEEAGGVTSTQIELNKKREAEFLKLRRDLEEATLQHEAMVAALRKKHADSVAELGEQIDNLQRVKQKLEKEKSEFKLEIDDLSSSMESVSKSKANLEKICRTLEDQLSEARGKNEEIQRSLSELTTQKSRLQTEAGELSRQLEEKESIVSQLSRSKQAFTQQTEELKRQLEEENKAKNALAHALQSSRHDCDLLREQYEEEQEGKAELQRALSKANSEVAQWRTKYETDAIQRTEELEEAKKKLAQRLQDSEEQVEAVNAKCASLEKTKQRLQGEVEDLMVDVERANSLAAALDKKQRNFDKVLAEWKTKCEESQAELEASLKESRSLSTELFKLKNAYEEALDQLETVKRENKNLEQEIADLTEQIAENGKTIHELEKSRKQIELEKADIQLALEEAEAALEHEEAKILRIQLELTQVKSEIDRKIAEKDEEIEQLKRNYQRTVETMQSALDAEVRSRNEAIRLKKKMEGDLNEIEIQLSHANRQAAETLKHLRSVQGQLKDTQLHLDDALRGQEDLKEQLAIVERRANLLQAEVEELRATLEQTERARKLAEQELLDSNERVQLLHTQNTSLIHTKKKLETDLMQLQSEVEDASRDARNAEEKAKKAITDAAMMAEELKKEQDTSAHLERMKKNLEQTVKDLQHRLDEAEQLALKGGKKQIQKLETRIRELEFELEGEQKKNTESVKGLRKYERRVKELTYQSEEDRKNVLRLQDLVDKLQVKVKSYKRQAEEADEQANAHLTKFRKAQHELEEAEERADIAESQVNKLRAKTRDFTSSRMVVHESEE
UniProt Q96QG7: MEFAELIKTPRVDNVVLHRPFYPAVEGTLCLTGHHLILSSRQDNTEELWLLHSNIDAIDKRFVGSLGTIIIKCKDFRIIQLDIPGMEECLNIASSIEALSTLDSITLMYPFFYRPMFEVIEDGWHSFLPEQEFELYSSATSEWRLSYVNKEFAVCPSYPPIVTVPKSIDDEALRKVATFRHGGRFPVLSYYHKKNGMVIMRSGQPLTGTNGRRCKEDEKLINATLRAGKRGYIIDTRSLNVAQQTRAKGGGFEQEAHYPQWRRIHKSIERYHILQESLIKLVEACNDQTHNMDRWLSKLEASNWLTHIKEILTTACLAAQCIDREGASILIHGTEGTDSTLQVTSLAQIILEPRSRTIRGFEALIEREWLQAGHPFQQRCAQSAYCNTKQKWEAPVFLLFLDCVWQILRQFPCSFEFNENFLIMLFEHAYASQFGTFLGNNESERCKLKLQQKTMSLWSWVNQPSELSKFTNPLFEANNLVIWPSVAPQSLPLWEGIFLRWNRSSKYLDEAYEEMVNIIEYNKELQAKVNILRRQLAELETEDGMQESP
UniProt Q9BRK3: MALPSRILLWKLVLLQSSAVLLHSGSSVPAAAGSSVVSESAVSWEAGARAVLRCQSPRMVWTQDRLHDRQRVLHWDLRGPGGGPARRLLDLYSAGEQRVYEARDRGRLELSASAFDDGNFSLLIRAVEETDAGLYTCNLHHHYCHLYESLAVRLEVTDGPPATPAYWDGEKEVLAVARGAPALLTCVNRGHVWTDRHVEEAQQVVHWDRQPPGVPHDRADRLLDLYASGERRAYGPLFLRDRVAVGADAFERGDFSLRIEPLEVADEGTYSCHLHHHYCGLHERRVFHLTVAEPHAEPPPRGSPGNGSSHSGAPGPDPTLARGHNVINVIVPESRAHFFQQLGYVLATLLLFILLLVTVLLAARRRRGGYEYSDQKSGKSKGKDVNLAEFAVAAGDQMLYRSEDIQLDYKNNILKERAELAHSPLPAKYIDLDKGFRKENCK
UniProt Q9BT17: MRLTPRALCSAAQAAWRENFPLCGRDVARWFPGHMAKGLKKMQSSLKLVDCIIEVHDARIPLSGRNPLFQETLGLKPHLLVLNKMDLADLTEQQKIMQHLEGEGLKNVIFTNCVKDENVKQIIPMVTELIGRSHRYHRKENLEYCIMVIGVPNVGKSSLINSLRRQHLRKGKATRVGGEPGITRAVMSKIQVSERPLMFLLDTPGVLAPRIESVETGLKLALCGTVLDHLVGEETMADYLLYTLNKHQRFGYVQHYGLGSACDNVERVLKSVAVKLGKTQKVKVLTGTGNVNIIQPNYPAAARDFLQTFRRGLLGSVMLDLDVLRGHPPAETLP
UniProt Q93083: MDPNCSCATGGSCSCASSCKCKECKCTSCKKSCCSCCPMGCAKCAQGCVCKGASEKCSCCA
UniProt P03891, whole entry, looked up: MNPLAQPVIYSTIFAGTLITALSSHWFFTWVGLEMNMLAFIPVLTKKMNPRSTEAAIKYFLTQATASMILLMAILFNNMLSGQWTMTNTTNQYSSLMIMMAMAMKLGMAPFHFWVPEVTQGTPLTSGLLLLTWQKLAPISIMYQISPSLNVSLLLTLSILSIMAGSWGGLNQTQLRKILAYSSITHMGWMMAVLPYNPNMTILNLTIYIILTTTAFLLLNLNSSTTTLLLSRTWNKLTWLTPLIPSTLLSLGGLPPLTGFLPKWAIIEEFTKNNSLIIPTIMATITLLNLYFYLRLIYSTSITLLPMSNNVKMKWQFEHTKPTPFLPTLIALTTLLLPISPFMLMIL
UniProt Q9H6N6: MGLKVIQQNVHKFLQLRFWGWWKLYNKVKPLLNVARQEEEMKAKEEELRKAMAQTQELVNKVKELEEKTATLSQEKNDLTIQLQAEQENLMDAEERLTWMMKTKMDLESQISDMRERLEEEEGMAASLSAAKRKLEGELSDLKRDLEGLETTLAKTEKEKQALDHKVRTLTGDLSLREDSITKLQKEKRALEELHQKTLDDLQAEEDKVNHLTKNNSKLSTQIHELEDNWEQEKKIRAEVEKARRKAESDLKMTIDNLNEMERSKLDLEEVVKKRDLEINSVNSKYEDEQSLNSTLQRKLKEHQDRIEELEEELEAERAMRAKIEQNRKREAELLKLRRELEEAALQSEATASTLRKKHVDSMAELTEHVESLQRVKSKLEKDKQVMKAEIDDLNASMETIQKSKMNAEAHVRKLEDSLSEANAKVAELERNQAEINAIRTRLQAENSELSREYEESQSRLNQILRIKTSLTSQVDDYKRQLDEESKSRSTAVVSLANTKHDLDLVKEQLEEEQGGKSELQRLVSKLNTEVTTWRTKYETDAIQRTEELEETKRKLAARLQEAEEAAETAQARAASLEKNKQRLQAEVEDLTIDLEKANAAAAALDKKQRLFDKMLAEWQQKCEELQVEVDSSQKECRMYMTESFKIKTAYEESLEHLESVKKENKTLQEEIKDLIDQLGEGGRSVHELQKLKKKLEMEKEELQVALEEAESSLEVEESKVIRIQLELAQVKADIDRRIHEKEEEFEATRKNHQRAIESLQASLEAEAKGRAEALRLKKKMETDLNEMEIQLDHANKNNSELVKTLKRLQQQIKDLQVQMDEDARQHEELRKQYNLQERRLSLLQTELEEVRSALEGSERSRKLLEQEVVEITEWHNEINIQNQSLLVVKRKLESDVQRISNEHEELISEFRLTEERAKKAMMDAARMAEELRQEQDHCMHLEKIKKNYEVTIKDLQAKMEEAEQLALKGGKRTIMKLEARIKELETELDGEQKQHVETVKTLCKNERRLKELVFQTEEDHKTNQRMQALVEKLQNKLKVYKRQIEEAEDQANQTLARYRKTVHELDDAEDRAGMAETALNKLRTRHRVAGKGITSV
UniProt P03897, whole entry, looked up: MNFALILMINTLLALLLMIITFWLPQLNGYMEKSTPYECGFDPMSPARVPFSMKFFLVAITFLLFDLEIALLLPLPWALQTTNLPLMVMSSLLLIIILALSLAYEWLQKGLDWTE

What follows are targets tested with CN1CC[C@H](c2c(O)cc(O)c3c(=O)cc(-c4ccccc4Cl)oc23)[C@H](O)C1 [alvocidib] (assay: log2 fold change, soluble protein after heating vs DMSO (PISA); higher = thermal stabilisation; K562 cells, 10 uM, 30 min; active = over 0.2 and 3.5 SD of the protein, either way, in both replicates (recomputed)).
Method in brief: (§1)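 For each measurement, 10 μM compound was applied for 30 min to K562 cells at 2×10^6 cells/mL. Aliquots were heated for 3 min across 48°C-58°C, pooled, and extracted in PBS with 0.5% NP-40 at 4°C; the supernatant after 21,000xg for 90 min was soluble protein. This was quantified by TMTpro 16plex LC-MS/MS with channel sums equalised, and thermal stability was reported relative to control samples from duplicates, on a log2 fold-change scale.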
For MYBBP1A isoform 2 (UniProt Q9BQG0), the log2 fold change was inactive: -0.046.
For MTHFSD (UniProt Q2M296), the log2 fold change was inactive: 0.213.
MYL3 (UniProt P08590) was tested, and the log2 fold change was inactive: -0.107.
In the case of MTRF1L (UniProt Q9UGC7), the log2 fold change is reported as inactive: -0.151.
MYH3 (UniProt P11055) was tested, and the log2 fold change was inactive: 0.021.
With MTMR9 (UniProt Q96QG7) the log2 fold change was inactive: -0.071.
In the case of MXRA8 isoform 2 (UniProt Q9BRK3), the log2 fold change is reported as inactive: 0.
For MTG1 (UniProt Q9BT17), the log2 fold change was inactive: 0.114.
With MT-CO1 (UniProt P00395) the log2 fold change was inactive: -0.04.
For MTHFD1L (UniProt B7ZM99), the log2 fold change was inactive: -0.092.
MYH6 (UniProt P13533) was tested, and the log2 fold change was inactive: 0.028.

The targets below were run with CN1CCc2c(c3ccccc3n2Cc2ccc(C(=O)NO)cc2)C1 [Tubastatin A] in the same assay as above.
Method in brief: as §1
With MTFMT (UniProt Q96DP5) the log2 fold change was inactive: -0.062.
For MYBBP1A isoform 2 (UniProt Q9BQG0), the log2 fold change was inactive: 0.402.
In the case of MTSS1 isoform 5 (UniProt O43312), the log2 fold change is reported as inactive: -0.002.
In the case of MTHFSD (UniProt Q2M296), the log2 fold change is reported as inactive: -0.002.
In the case of MTURN (UniProt Q8N3F0), the log2 fold change is reported as inactive: -0.272.
In the case of MYO18B isoform 3 (UniProt Q8IUG5), the log2 fold change is reported as inactive: 0.103.
With MRPS16 (UniProt Q9Y3D3) the log2 fold change was inactive: 0.008.
In the case of MTRES1 (UniProt Q9P0P8), the log2 fold change is reported as inactive: -0.018.
MTRF1L (UniProt Q9UGC7) was tested, and the log2 fold change was inactive: -0.046.
With MT1L (UniProt Q93083) the log2 fold change was inactive: -0.27.
MT-ND2 (UniProt P03891) was tested, and the log2 fold change was inactive: -0.044.
In the case of MYH3 (UniProt P11055), the log2 fold change is reported as inactive: -0.001.
For MT-ATP8 (UniProt P03928), the log2 fold change was inactive: -0.004.
With MTMR9 (UniProt Q96QG7) the log2 fold change was inactive: 0.044.
In the case of MXRA8 isoform 2 (UniProt Q9BRK3), the log2 fold change is reported as inactive: 0.023.
In the case of MTG1 (UniProt Q9BT17), the log2 fold change is reported as inactive: 0.153.
In the case of MT-CO1 (UniProt P00395), the log2 fold change is reported as inactive: -0.146.
For MYH16 (UniProt Q9H6N6), the log2 fold change was inactive: -0.069.

Each target was assayed with CNC(=O)C1=CC=CC=C1NC2=NC(=NC=C2Cl)NC3=C(C=C(C=C3)N4CCOCC4)OC in the same assay as above.
Method in brief: as §1
In the case of MYBBP1A isoform 2 (UniProt Q9BQG0), the log2 fold change is reported as inactive: -0.138.
With MYO18B isoform 3 (UniProt Q8IUG5) the log2 fold change was inactive: -0.024.
For MYL3 (UniProt P08590), the log2 fold change was inactive: 0.07.
With MRPS16 (UniProt Q9Y3D3) the log2 fold change was inactive: -0.115.
For MYO9A isoform 4 (UniProt B2RTY4), the log2 fold change was inactive: -0.116.
MTRES1 (UniProt Q9P0P8) was tested, and the log2 fold change was inactive: -0.037.
For MTRF1L (UniProt Q9UGC7), the log2 fold change was inactive: 0.037.
MT-ND3 (UniProt P03897) was tested, and the log2 fold change was inactive: -0.17.
With MT1L (UniProt Q93083) the log2 fold change was inactive: 0.004.
In the case of MT-ND2 (UniProt P03891), the log2 fold change is reported as inactive: 0.
In the case of MYH3 (UniProt P11055), the log2 fold change is reported as inactive: 0.079.
In the case of MT-ATP8 (UniProt P03928), the log2 fold change is reported as inactive: 0.107.
MTMR9 (UniProt Q96QG7) was tested, and the log2 fold change was inactive: 0.038.
In the case of MXRA8 isoform 2 (UniProt Q9BRK3), the log2 fold change is reported as inactive: -0.041.
In the case of MYO19 (UniProt Q96H55), the log2 fold change is reported as inactive: -0.046.
With MTMR4 (UniProt Q9NYA4) the log2 fold change was inactive: -0.05.
In the case of MTG1 (UniProt Q9BT17), the log2 fold change is reported as inactive: -0.002.
For MT-CO1 (UniProt P00395), the log2 fold change was inactive: 0.051.
In the case of MYH16 (UniProt Q9H6N6), the log2 fold change is reported as inactive: -0.075.
With MTHFD1L (UniProt B7ZM99) the log2 fold change was inactive: 0.013.
In the case of MSL1 (UniProt Q68DK7), the log2 fold change is reported as inactive: -0.253.
In the case of MYH6 (UniProt P13533), the log2 fold change is reported as inactive: -0.138.

The targets below were run with CNC(=O)c1ccc(Nc2ncc(C(F)(F)F)c(NCc3nccnc3N(C)S(C)(=O)=O)n2)cc1 [defactinib] in the same assay as above.
Method in brief: as §1
MTFMT (UniProt Q96DP5) was tested, and the log2 fold change was inactive: -0.122.
MTSS1 isoform 5 (UniProt O43312) was tested, and the log2 fold change was inactive: -0.221.
With MTURN (UniProt Q8N3F0) the log2 fold change was inactive: 0.134.
In the case of MRPS16 (UniProt Q9Y3D3), the log2 fold change is reported as inactive: 0.043.
In the case of MYO9A isoform 4 (UniProt B2RTY4), the log2 fold change is reported as inactive: 0.167.
In the case of MTRF1L (UniProt Q9UGC7), the log2 fold change is reported as inactive: -0.006.
MYD88 isoform 6 (UniProt Q99836) was tested, and the log2 fold change was inactive: -0.085.
For MT-ND2 (UniProt P03891), the log2 fold change was inactive: -0.008.
MTMR9 (UniProt Q96QG7) was tested, and the log2 fold change was inactive: -0.04.
With MXRA8 isoform 2 (UniProt Q9BRK3) the log2 fold change was inactive: 0.083.
For MYO19 (UniProt Q96H55), the log2 fold change was inactive: 0.093.
For MTG1 (UniProt Q9BT17), the log2 fold change was inactive: -0.06.
For MT-CO1 (UniProt P00395), the log2 fold change was inactive: -0.004.
In the case of MYH16 (UniProt Q9H6N6), the log2 fold change is reported as inactive: 0.013.
In the case of MTHFD1L (UniProt B7ZM99), the log2 fold change is reported as inactive: -0.001.
With MYO1B (UniProt O43795) the log2 fold change was inactive: -0.061.
For MSL1 (UniProt Q68DK7), the log2 fold change was inactive: -0.069.
